According to PubChem BioAssay (Tox21):
Values joined by “and” are separate entries in the source; they are usually repeats but may differ in a detail not shown here. Equal entries are not always repeated. This list was built around the results that the source calls inconclusive (neither active nor inactive); the mix of calls is not that of the screen. Where the call is inconclusive, the potency comes from a doubtful curve fit. Active and inactive are the calls of the source. Calls follow the shape of the dose curve; as a rule, active = well fitted curve in the direction sought with a large enough effect in the repeat runs; inconclusive = weak or mixed curves; inactive = no such curve, though single readings can be large; an effect the other way counts as inactive or inconclusive.

Sequences of proteins named here, by UniProt entry; tags and fusion partners are left off.
UniProt P10635, whole entry, looked up: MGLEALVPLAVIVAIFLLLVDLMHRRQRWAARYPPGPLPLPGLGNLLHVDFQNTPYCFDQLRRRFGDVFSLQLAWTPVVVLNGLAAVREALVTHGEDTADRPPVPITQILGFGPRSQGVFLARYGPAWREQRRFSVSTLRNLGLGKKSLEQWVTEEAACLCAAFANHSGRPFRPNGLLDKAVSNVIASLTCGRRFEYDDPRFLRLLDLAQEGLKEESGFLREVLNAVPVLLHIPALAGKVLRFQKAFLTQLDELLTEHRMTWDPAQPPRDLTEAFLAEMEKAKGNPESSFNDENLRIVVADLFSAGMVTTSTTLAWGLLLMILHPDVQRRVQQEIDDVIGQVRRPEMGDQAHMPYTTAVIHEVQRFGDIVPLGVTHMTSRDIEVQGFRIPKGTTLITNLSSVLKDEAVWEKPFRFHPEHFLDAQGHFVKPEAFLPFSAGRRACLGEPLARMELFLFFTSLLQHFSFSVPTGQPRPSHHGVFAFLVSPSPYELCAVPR
UniProt P33261, whole entry, looked up: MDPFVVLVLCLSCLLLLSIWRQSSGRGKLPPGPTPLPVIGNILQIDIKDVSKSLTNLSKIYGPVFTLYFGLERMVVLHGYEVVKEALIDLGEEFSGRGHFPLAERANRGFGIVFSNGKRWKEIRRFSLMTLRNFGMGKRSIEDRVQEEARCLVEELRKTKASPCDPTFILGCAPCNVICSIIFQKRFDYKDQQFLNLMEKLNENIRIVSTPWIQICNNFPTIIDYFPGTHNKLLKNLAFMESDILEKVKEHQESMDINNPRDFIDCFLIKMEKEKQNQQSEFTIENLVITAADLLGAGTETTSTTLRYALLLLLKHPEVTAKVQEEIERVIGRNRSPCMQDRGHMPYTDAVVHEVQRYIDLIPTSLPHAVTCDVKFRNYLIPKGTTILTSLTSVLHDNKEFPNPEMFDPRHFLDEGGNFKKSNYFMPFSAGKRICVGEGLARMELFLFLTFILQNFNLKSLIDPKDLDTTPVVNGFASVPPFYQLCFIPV
UniProt P11712, whole entry, looked up: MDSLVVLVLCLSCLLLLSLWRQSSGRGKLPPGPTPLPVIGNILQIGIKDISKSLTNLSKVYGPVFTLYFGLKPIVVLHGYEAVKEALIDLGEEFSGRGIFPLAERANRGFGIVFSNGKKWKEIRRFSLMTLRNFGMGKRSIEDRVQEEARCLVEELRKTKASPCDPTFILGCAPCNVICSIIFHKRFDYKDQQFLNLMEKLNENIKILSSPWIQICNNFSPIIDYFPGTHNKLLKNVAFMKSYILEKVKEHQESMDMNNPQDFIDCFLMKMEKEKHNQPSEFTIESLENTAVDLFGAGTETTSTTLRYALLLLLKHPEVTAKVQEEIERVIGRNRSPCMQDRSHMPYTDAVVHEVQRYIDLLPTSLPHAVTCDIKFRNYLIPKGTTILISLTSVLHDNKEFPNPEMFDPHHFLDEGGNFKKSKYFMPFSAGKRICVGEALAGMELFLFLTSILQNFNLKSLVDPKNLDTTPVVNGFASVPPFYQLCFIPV

Molecular target: Nuclear receptor subfamily 1 group I member 2 (Homo sapiens) (UniProt O75469)
Assay: Human pregnane X receptor (PXR) small molecule agonists, qHTS assay (AID 1346982); also: nearly all actives have a fitted effect of over 35% in size
Details: PXR-Luc HepG2, CYP3A4 luciferase reporter, 24 h; series mostly up to 92.4 µM
Procedure, shortened: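 Cells: HepG2 stably carrying PXR-Luc. Medium held 5% charcoal-stripped FBS. Compounds in DMSO added after 5 hr plating, incubated 24 hr, then luminescence quantified with ONE-Glo.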
Potency is read from the fitted curve at half-maximal effect.

| SMILES | Potency |
| --- | --- |
| NCCCN1CCN(CCCN)CC1 | inactive |
| O=C1C(O)=C(O)C(=O)C(O)=C1O | inactive |
| Cc1ccc(C(=O)Oc2ccc(C(O)CNC(C)(C)C)cc2OC(=O)c2ccc(C)cc2)cc1 (configuration not stated) | inconclusive: 29.8 µM [activator, partial curve] |
| OCCCCC(O)CO (configuration not stated) | inactive |
| O=[N+]([O-])c1cccc(S(=O)(=O)O)c1 | inconclusive: 55.3 µM [activator, partial curve, poor fit] |
| c1ccc(C[P+](c2ccccc2)(c2ccccc2)c2ccccc2)cc1 | inconclusive: 15.4 µM [activator, partial curve] |
| COCc1c(C(C)C)nc(C(C)C)c(/C=C/[C@@H](O)C[C@@H](O)CC(=O)O)c1-c1ccc(F)cc1 | active: 15 µM and active: 10.8 µM |
| CC(=O)S[C@@H]1CC2=CC(=O)CC[C@]2(C)[C@H]2CC[C@@]3(C)[C@@H](CC[C@@]34CCC(=O)O4)[C@H]12 | inconclusive: 68.6 µM [activator, single point] |
| CCN(CC)C(=O)/C(C#N)=C/c1cc(O)c(O)c([N+](=O)[O-])c1 | inconclusive: 33.5 µM [activator, single point] |
| CC/C=C\CCO | inactive |
| Cc1cnc(C)c(C)n1 | inactive |

Molecular target: Nuclear receptor subfamily 1 group I member 2 (Homo sapiens) (UniProt O75469)
Assay: Human pregnane X receptor (PXR) activation by small molecules, qHTS assay (AID 1346985); also: nearly all actives have a fitted effect of over 40% in size
Details: DPX-2 HepG2 CYP3A4-luciferase, 24 h; series mostly up to 38.3 µM
Procedure, shortened: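 DPX-2 cells (HepG2 co-transfected with a PXR response element and a CYP3A4-promoter luciferase construct) were seeded at 2,000 per well, rested 5 hr at 37C, then exposed to DMSO-dissolved compounds for 24 hr. Activation was read as luciferase luminescence.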

| SMILES | Potency |
| --- | --- |
| CN1CCCCC1CCN1c2ccccc2Sc2ccc(S(C)=O)cc21 (configuration not stated) | inconclusive: 15.8 µM [activator, partial curve, poor fit] and active: 15.8 µM |
| Nc1ccc(C(=O)O)cc1 | inactive |
| COc1ccc2[nH]c(S(=O)Cc3ncc(C)c(OC)c3C)nc2n1 (configuration not stated) | active: 25.1 µM |

Molecular target: Cytochrome P450 2D6 (Homo sapiens) (UniProt P10635)
Assay: Cytochrome P450 Family 2 Subfamily D Member 6 (CYP2D6) small molecule antagonists: luciferase reporter qHTS assay (AID 1671196); also: nearly all actives have a fitted effect of over 50% in size
Details: P450-Glo CYP2D6 enzyme assay, luciferin luminescence, 1 h; series mostly up to 115 µM
Procedure, shortened: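 Enzyme and proluciferin substrate were first combined with test chemical for 10 min at room temperature. Adding NADPH regeneration solution started a 1 h reaction, stopped with luciferin detection reagent and read by luminescence 20 min later.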

| SMILES | Potency |
| --- | --- |
| NCCCN1CCN(CCCN)CC1 | inconclusive: 17.8 µM [inhibitor, full curve] |
| COc1ccc2[nH]c(S(=O)Cc3ncc(C)c(OC)c3C)nc2n1 (configuration not stated) | inconclusive: 15.5 µM [inhibitor, full curve] |
| CC(=O)Nc1ccc2c(c1)Cc1cc(NC(C)=O)ccc1-2 | inactive |
| C=C1CC[C@H](O)CC1=C/C=C1\CCC[C@]2(C)[C@@H]([C@H](C)/C=C/[C@H](C)C(C)C)CC[C@@H]12 | inconclusive: 55.9 µM [inhibitor, partial curve] and inconclusive: 35.6 µM [inhibitor] |
| Cc1ccc(C(=O)Oc2ccc(C(O)CNC(C)(C)C)cc2OC(=O)c2ccc(C)cc2)cc1 (configuration not stated) | inconclusive: 27.5 µM [inhibitor] |
| CC12CC3CC(C)(C1)CC(N)(C3)C2 | inconclusive: 17.4 µM [inhibitor, partial curve] |
| O=C(O)CC(C(=O)O)S(=O)(=O)O (configuration not stated) | inconclusive: 71 µM [inhibitor] |
| CCOC(=O)/C=C\C(=O)OCC | inactive |
| O=C(O)/C=C/c1ccc(/C=C/C(=O)O)cc1 | inconclusive: 12.3 µM [inhibitor, full curve] |

Molecular target: Cytochrome P450 2C19 (Homo sapiens) (UniProt P33261)
Assay: Cytochrome P450 Family 2 Subfamily C Member 19 (CYP2C19) small molecule antagonists: luciferase reporter qHTS assay (AID 1671197); also: nearly all actives have a fitted effect of over 65% in size
Details: P450-Glo CYP2C19 enzyme, luciferin luminescence, 1 h; series mostly up to 115 µM
Procedure, shortened: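 First, compounds are pinned into enzyme-substrate mix and held 10 min at room temperature. Second, NADPH regeneration solution is added and plates incubate 1 h at 37C. Third, detection reagent is added and luminescence read after 20 min.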

| SMILES | Potency |
| --- | --- |
| CN1CCCCC1CCN1c2ccccc2Sc2ccc(S(C)=O)cc21 (configuration not stated) | inactive |
| Cc1ccc(C(=O)Oc2ccc(C(O)CNC(C)(C)C)cc2OC(=O)c2ccc(C)cc2)cc1 (configuration not stated) | inactive |
| N=C(N)c1ccc(OCCCCCOc2ccc(C(=N)N)cc2)cc1 | inactive |
| C=CCCCCCCCCC(=O)OCCCC | active: 56.4 µM |
| c1ccc(C[P+](c2ccccc2)(c2ccccc2)c2ccccc2)cc1 | inconclusive: 71 µM [inhibitor, single point] |
| Clc1ccc(Cl)c(Cl)c1Cl | inconclusive: 12.6 µM [inhibitor, full curve, poor fit] |
| COCc1c(C(C)C)nc(C(C)C)c(/C=C/[C@@H](O)C[C@@H](O)CC(=O)O)c1-c1ccc(F)cc1 | inconclusive: 39.5 µM [inhibitor, single point] |
| CCN(CC)C(=O)/C(C#N)=C/c1cc(O)c(O)c([N+](=O)[O-])c1 | inactive |
| CC/C=C\CCO | inactive |
| COc1ccc(CCN(C)CCCC(C#N)(c2cc(OC)c(OC)c(OC)c2)C(C)C)cc1OC (configuration not stated) | inactive |
| CCN(CC)C(=O)N(CC)CC | inconclusive: 79.6 µM [inhibitor] |

Molecular target: Cytochrome P450 2C9 (Homo sapiens) (UniProt P11712)
Assay: Cytochrome P450 Family 2 Subfamily C Member 9 (CYP2C9) small molecule antagonists: luciferase reporter qHTS assay (AID 1671198); also: nearly all actives have a fitted effect of over 50% in size
Details: P450-Glo CYP2C9 enzyme assay, luciferin luminescence; series mostly up to 115 µM
Procedure, shortened: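 P450-Glo proluciferin substrate with CYP2C9 enzyme; 10 min RT preincubation, then NADPH regeneration 1 h at 37C; luciferin detection reagent 20 min RT, luminescence in relative luminescence units.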

| SMILES | Potency |
| --- | --- |
| CC(=O)Nc1ccc2c(c1)Cc1cc(NC(C)=O)ccc1-2 | inconclusive: 89.1 µM [inhibitor, partial curve, poor fit] |
| Cc1ccc(C(=O)Oc2ccc(C(O)CNC(C)(C)C)cc2OC(=O)c2ccc(C)cc2)cc1 (configuration not stated) | inconclusive: 34.7 µM [inhibitor, partial curve] |
| C=CCCCCCCCCC(=O)OCCCC | inconclusive: 56.4 µM [inhibitor, partial curve, poor fit] |
| COCc1c(C(C)C)nc(C(C)C)c(/C=C/[C@@H](O)C[C@@H](O)CC(=O)O)c1-c1ccc(F)cc1 | inconclusive: 30.9 µM [inhibitor, partial curve] |
| CO[C@H]1C=CO[C@@]2(C)Oc3c(C)c(O)c4c(O)c(c5c(c4c3C2=O)=NC2(CCN(CC(C)C)CC2)N=5)NC(=O)/C(C)=C\C=C/[C@H](C)[C@H](O)[C@@H](C)[C@@H](O)[C@@H](C)[C@H](OC(C)=O)[C@@H]1C | inconclusive: 34.8 µM [inhibitor, partial curve] |
| CC/C=C\CCO | inconclusive: 89.4 µM [inhibitor, single point] |
| CCOC(=O)/C=C\C(=O)OCC | inconclusive: 64.4 µM [inhibitor, partial curve, poor fit] |
| OCCNCc1ccccc1 | inactive |
